Data as given in PubChem BioAssay AID504834 (National Center for Advancing Translational Sciences (NCATS), 2011).
The campaign covered roughly 320,000 compounds. About 22,000 (6.9%) were called active. Inconclusive means that the source gave no clear call. Such entries were picked first, then a sample of the others. The call rests on the fitted dose curve; in most records, active means well fitted inhibition curve with a large enough effect; inconclusive means small, poorly fitted or top-dose-only effect, or another doubt; inactive means no such curve, though single readings can be large or run the other way. Potencies beside an inconclusive call are fits to weak or partial responses and may not hold up.

Test: Primary qHTS for delayed death inhibitors of the malarial parasite plastid, 96 hour incubation
Settings: P. falciparum luciferase reporter growth; series mostly up to 28.7 µM; activity change, negative = inhibition: at the top concentration
In short: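 Parasite growth measured via integrated firefly luciferase reporter in P. falciparum. Infected erythrocytes at 2% hematocrit, 0.05% parasitemia final were treated 96 hours at 37 C under 5% CO2, and luminescence was read.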
On the % scale 0 is the no-effect control and ±100 the full control effect; potency means the concentration at half of the fitted maximal effect.

| Compound | Potency | activity change, negative = inhibition |
| --- | --- | --- |
| COC(=O)c1ccc(COC(=O)c2ccc(-n3cnnn3)cc2)o1 | inconclusive: 13.1 µM [inhibitor, partial curve, poor fit] |  |
| C/C(CC(=O)NCc1ccco1)=N\NC(=O)Cc1ccccc1 | inconclusive: 0.0657 µM [inhibitor, full curve, poor fit] |  |
| COc1ccccc1CNC(=O)Cc1c[nH]c2ccccc12 | inconclusive: 11.7 µM [inhibitor, partial curve, poor fit] |  |
| O=C(NCc1ccccn1)c1ccc2nc(C3CCCCC3)oc2c1 | inconclusive: 11.7 µM [inhibitor, partial curve, poor fit] |  |
| O=C(NC1CCCC1)C(c1ccc(F)cc1)N(Cc1ccccc1Cl)C(=O)CCl (stereo not given) | inconclusive: 4.15 µM [inhibitor, single point] |  |
| CCN(Cc1nc2cc(Cl)ccc2c(=O)[nH]1)C(=O)c1cc2c(s1)CCCCC2 |  | inactive: 27% |
| CNC(=O)N(O)C1N(/N=C/c2ccc(C)cc2)C(=S)SC1(C)C (stereo not given) |  | inactive: 16.2% |
| CNC(=O)Oc1cccc(-c2cn3cc(OC(=O)NC)ccc3n2)c1 | inconclusive: 11.7 µM [inhibitor, single point] |  |
| COCCn1c(SCC(=O)Nc2ccc3c(c2)OCCO3)nc2c(c1=O)SC(C)C2 (stereo not given) | inconclusive: 0.828 µM [inhibitor, full curve, poor fit] |  |
| COc1ccc(/C(N)=N/OC(=O)c2ccc([N+](=O)[O-])c(C)c2)cc1OC | inconclusive: 0.0586 µM [inhibitor, full curve, poor fit] |  |
| COc1cccc(-n2cc3c(=O)n(C)c(=O)n(C)c3c2)c1 |  | inactive: 12.1% [at 5.75 µM] |
| CCCCn1c(N)c(N(CCOC)C(=O)CCS(=O)(=O)c2ccc(Cl)cc2)c(=O)[nH]c1=O | inconclusive: 0.657 µM [inhibitor, full curve] |  |
| CC1CC(C)CN(C(=O)/C=C/c2ccc([N+](=O)[O-])s2)C1 (stereo not given) | active: 9.28 µM |  |
| O=C(Oc1ccc(/C=N/NC(=O)c2ccccc2F)cc1)c1ccccc1 | inconclusive: 18.5 µM [inhibitor, single point] |  |
| CC(/C=C1\SC(=S)N(CCCC(=O)Nc2ccc(C(=O)O)c(O)c2)C1=O)=C\c1ccccc1 | inconclusive: 10.4 µM [inhibitor, single point] |  |
| Cc1cc(C(=O)N(Cc2nnc(-c3ccc(Cl)cc3)o2)C(C)C)c2ccccc2n1 | active: 10.4 µM |  |
| O=C(NC1CCCC1)NS(=O)(=O)c1ccccc1Cl | inconclusive: 7.38 µM [inhibitor, partial curve, poor fit] |  |
| CCOC(=O)c1ccc(NC(=O)CCc2nc(-c3ccc(C)cc3)no2)cc1 | active: 3.7 µM |  |
| Cc1nc(-c2cc(C#N)c(Sc3ccc(Cl)cc3Cl)nc2C)cs1 | inconclusive: 3.7 µM [inhibitor, partial curve, poor fit] |  |
| COC(=O)C(C)(C)ONC(=O)Nc1ccccc1 |  | inactive: 0% |
| CCN(CC)S(=O)(=O)c1cccc(NC(=O)COC(=O)CCC(=O)c2cccs2)c1 | inconclusive: 3.29 µM [inhibitor, single point] |  |
| C=C1CCC[C@]2(C)C[C@H]3OC(=O)C(CNCCN(C)C)[C@H]3CC12 (stereo not given in full) | inconclusive: 9.28 µM [inhibitor, single point] |  |
| CN1C(=O)C(O)(CC(=O)/C=C/C=C/c2ccccc2)c2ccccc21 (stereo not given) | inconclusive: 18.5 µM [inhibitor, partial curve, poor fit] |  |
| CN(C)CCC1Sc2ccccc2Oc2ccccc21 (stereo not given) | inconclusive: 8.28 µM [inhibitor, single point] |  |

| Compound | Potency | activity change, negative = inhibition |
| --- | --- | --- |
| O=C1/C(=C/c2ccccc2[N+](=O)[O-])COc2ccccc21 | inconclusive: 18.5 µM [inhibitor, single point] |  |
| O=C(Nc1ccccc1C(F)(F)F)N1CCN(C(c2ccccc2)c2ccccc2)CC1 | inconclusive: 9.28 µM [inhibitor, single point] |  |
| CC(Oc1ccc(Cl)cc1)C(=O)N1CCCc2ccccc21 (stereo not given) | inconclusive: 9.28 µM [inhibitor, partial curve, poor fit] |  |
| CCOC(=O)c1c(S(=O)(=O)N2CCCC(C(=O)Nc3cccc(C)n3)C2)c(C)n(C)c1C (stereo not given) | inconclusive: 0.928 µM [inhibitor, full curve] |  |
| CCOC(CNc1c([N+](=O)[O-])c(=O)n(C)c(=O)n1C)OCC |  | inactive: 5.39% |
| CC(=O)c1ccc(OCCCC(=O)N2CCN(S(=O)(=O)c3cc(C)ccc3C)CC2)cc1 | inconclusive: 11.7 µM [inhibitor, partial curve] |  |
| Cc1nn(-c2ccccc2)c(C)c1/C=N/NC(=O)c1cc(-c2ccccc2)n[nH]1 | active: 9.28 µM |  |
| Cc1[nH]c2ccccc2c1-c1nc2ccccc2[nH]c1=O |  | inactive: 19% |
| Cc1ccc(OCC(=O)N/N=C/c2ccncc2)cc1C | inconclusive: 14.7 µM [inhibitor, single point] |  |
| Cc1cc(C)nc(SSc2nc(C)cc(C)n2)n1 | inconclusive: 18.5 µM [inhibitor, partial curve, poor fit] |  |
| C/C(=N\NC(=O)C1CC1)c1ccc(OC(F)F)cc1 | inconclusive: 18.5 µM [inhibitor, single point] |  |
| O=C1CC(c2ccccc2)n2ncnc2N1 (stereo not given) | inconclusive: 20.8 µM [inhibitor, single point] |  |
| O=C(NCc1ccccn1)c1cc2ccccc2oc1=O | inconclusive: 5.22 µM [inhibitor, partial curve, poor fit] |  |
| CC(=O)N1CCOc2ccc(S(=O)(=O)NCC3CCC(C(=O)NCCC(C)C)CC3)cc21 (stereo not given) | inconclusive: 18.5 µM [inhibitor, single point] |  |
| CCC(=O)Nc1ccc(NC(=O)CSc2nnnn2Cc2ccccc2)cc1C |  | inactive: 2.37% |
| O=C(Cn1c(=O)oc2ccccc21)Nc1ccc(F)c(F)c1 |  | inactive: 13.5% |
| Cc1nc(NCc2ccccn2)c2c3c(sc2n1)CCCC3 | inconclusive: 4.65 µM [inhibitor, partial curve, poor fit] |  |
| OC(c1ccc(Cl)cc1Cl)C(Cc1cccnc1)n1cncn1 (stereo not given) | active: 13.1 µM |  |
| CN1CCN(S(=O)(=O)c2cnc(Cl)c(Br)c2)CC1 | inconclusive: 13.1 µM [inhibitor, single point] |  |
| COc1ccc(C(=O)NCCS(=O)(=O)N2CCc3ccccc3C2)cc1OC |  | inactive: -25.4% |
| O=C(CSc1nc(=O)n(CCCN2CCOCC2)c2c1CCC2)Nc1ccc([N+](=O)[O-])cc1 | inconclusive: 18.5 µM [inhibitor, single point] |  |
| COc1ccc2nc(C)cc(N/N=C/c3cccc(OC)c3O)c2c1 |  | inactive: -8.77% |
| Cc1ccc(NC(=O)CN(C)C(=O)CCOc2cccc(C)c2)cc1 |  | inactive: -2.25% |
| COc1ccccc1N1CCN(C(=O)CCC(=O)N2CCN(c3ccc(F)cc3)CC2)CC1 |  | inactive: -21.9% |

| Compound | Potency | activity change, negative = inhibition |
| --- | --- | --- |
| COc1ccc2cc(C3CC(c4ccco4)=NN3S(C)(=O)=O)c(Cl)nc2c1 (stereo not given) | inconclusive: 5.86 µM [inhibitor, partial curve] |  |
| O=C(CCc1nc2ccccc2s1)NCc1ccccc1F |  | inactive: 24.3% |
| O=C(Cn1ccc(NC(=O)OCc2ccccc2)nc1=O)NCc1ccccn1 | inconclusive: 0.738 µM [inhibitor, full curve, poor fit] |  |
| O=C(C1=NN[C@@H]2C(=O)N(c3cccc(F)c3)C(=O)[C@H]12)c1cnccn1 |  | inactive: 57.4% |
| Cc1ccc(NC(=O)c2cc(-c3ccccc3O)n[nH]2)cc1Cl | inconclusive: 1.65 µM [inhibitor, full curve] |  |
| COc1cccc(NC(=O)CS(=O)(=O)c2cn(CC(=O)N3CCOCC3)c3ccccc23)c1 | inconclusive: 0.233 µM [inhibitor, partial curve, poor fit] |  |
| COc1cccc(/C=C2/SC(=S)N(CC(=O)NNC(=O)c3ccccc3O)C2=O)c1 | inconclusive: 18.5 µM [inhibitor, single point] |  |
| O=C(Nc1ccc(F)c(Cl)c1)c1cccnc1 |  | inactive: 3.33% |
| Cn1c(N)c(C(=O)COC(=O)C2=NNC(=O)CC2)c(=O)n(C)c1=O |  | inactive: 45.3% |
| CCC(=O)O[C@]1(C(=O)CCl)[C@@H](C)CC2C3C[C@H](F)C4=CC(=O)C=CC4(C)[C@@]3(F)C(O)CC21C (stereo not given in full) |  | inactive: -12.6% |
| CC(C)C(=O)Nc1ccc(C(=O)NNC(=O)CCc2ccccc2)cc1 |  | inactive: 27.1% |
| C=CCn1c(CNC(=O)c2cccs2)nnc1SCc1ccc(Cl)cc1Cl | inconclusive: 2.62 µM [inhibitor, single point] |  |
| COc1nc2ccccc2cc1-c1noc(-c2cccnc2)n1 | inconclusive: 18.5 µM [inhibitor, single point] |  |
| CCCCCC(=O)NC(Nc1ccc(S(N)(=O)=O)cc1)C(Cl)(Cl)Cl (stereo not given) | inconclusive: 18.5 µM [inhibitor, single point] |  |
| CC(C)n1nnnc1SCC(=O)Nc1cccc(F)c1 |  | inactive: -2.77% |
| CCN(CC(=O)Nc1cc(Cl)ccc1C)C(=O)CSCc1ccccc1 | inconclusive: 14.7 µM [inhibitor, partial curve, poor fit] |  |
| O=C(CCCl)Nc1nc2c(s1)CCc1ccccc1-2 | active: 2.08 µM |  |
| OC(CNC1Cc2ccccc2C1)c1ccccc1 (stereo not given) | active: 13.1 µM |  |
| Cc1noc(NS(=O)(=O)c2ccc(N/C=C\C(=O)c3ccc(F)cc3)cc2)c1C |  | inactive: -44.9% [at 1.15 µM] |
| CCNC(=S)NNC(=O)CCn1c2ccccc2c2ccccc21 | inconclusive: 10.4 µM [inhibitor, single point] |  |
| Cc1ccccc1NS(=O)(=O)c1cc(C(N)=O)ccc1C | inconclusive: 18.5 µM [inhibitor, single point] |  |
| Cc1ccc(C(=O)NCc2ccc3c(c2)OCO3)cc1S(=O)(=O)N1CCOCC1 | inconclusive: 0.415 µM [inhibitor, partial curve, poor fit] |  |

Among those listed so far, these have a nitro group on carbon.

| Compound | Potency | activity change, negative = inhibition |
| --- | --- | --- |
| COc1ccc(/C(N)=N/OC(=O)c2ccc([N+](=O)[O-])c(C)c2)cc1OC | inconclusive: 0.0586 µM [inhibitor, full curve, poor fit] |  |
| CC1CC(C)CN(C(=O)/C=C/c2ccc([N+](=O)[O-])s2)C1 (stereo not given) | active: 9.28 µM |  |
| O=C1/C(=C/c2ccccc2[N+](=O)[O-])COc2ccccc21 | inconclusive: 18.5 µM [inhibitor, single point] |  |
| CCOC(CNc1c([N+](=O)[O-])c(=O)n(C)c(=O)n1C)OCC |  | inactive: 5.39% |
| O=C(CSc1nc(=O)n(CCCN2CCOCC2)c2c1CCC2)Nc1ccc([N+](=O)[O-])cc1 | inconclusive: 18.5 µM [inhibitor, single point] |  |
